PubChem BioAssay AID200 (DTP/NCI, 2004)
The list is a part of this screen's results and no random one: it gathers tests that were run many times, whatever their T/C, doses with no T/C, and many T/C values between a quarter and a half above the control. Further doses and runs are listed elsewhere. T/C gives the treated animals as a percentage of the vehicle group. Some doses have a count of surviving animals in place of a T/C: the source files T/C as zero there, which appears to mark a toxic dose or a test without result, not a measured value. Some doses without a T/C left all or most animals alive at the check, yet need not have been tolerated: survival well below the control is almost never listed, so the zero probably covers shortened survival too. Survivors were counted at the toxicity check, usually on the fifth day, unless a day is given; later deaths do not show. Schedules are NCI's codes, read here as Q, the interval in days (D) or hours (H), X, the number of doses. Some doses were run more than once; the results are listed from low to high. Where survival is the endpoint, this PubChem deposit counts one and a half times the control or more as active, and values a quarter to a half above the control carry no call in these data; other NCI protocols may use other cut-offs. Some T/C values are followed by the survivors on the day toxicity was checked, most often the fifth; without a count, all were alive then.

Test system: B6C3F1 mice, B16 melanoma ip, median survival T/C
Assay: NCI In Vivo Anticancer Drug Screen. Data for tumor model B16 Melanoma (intraperitoneal) in B6C3F1 mice
Details: T/C endpoint: median survival time, schedule: Q01DX009 (ip), higher T/C = longer survival
In short: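 Tumor-bearing mice received test compound; a separate group got vehicle only. Survival was then compared, with results reported as treated over control.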

[1] = dose: 10.0 mg/kg/injection, vehicle: Klucel (hydroxypropylcellulose) (HPC)
[2] = dose: 100.0 mg/kg/injection, vehicle: Klucel (hydroxypropylcellulose) (HPC)
[3] = dose: 200.0 mg/kg/injection, vehicle: Klucel (hydroxypropylcellulose) (HPC)
[4] = dose: 50.0 mg/kg/injection, vehicle: water
[5] = dose: 200.0 mg/kg/injection, vehicle: saline with Tween-80

SMILES: CC(=O)OCC1OC([S-])C(OC(C)=O)C(OC(C)=O)C1OC(C)=O.CC[PH+](CC)CC.CC[PH+](CC)CC.[Au].[Au] (stereo not given)
- T/C (dose: 1.25 mg/kg/injection, vehicle: Klucel (hydroxypropylcellulose) (HPC)): 140 % of control
- survivor count [1]: 5 of 10
- survivor count (dose: 20.0 mg/kg/injection, vehicle: Klucel (hydroxypropylcellulose) (HPC)): 2 of 10

SMILES: CN(C)CCCOc1nc2c(c(=O)n(C)c(=O)n2C)n1C (tested in a mixture with another compound)
- survivor count [2]: 10 of 10

SMILES: Cc1ccc2c(c1)C1(C)OC(C=CC1=O)O2 (stereo not given)
- survivor count (dose: 50.0 mg/kg/injection, vehicle: Klucel (hydroxypropylcellulose) (HPC)): 8 of 10 and 9 of 10
- survivor count [2]: 0 of 10
- survivor count [3]: 0 of 10
- survivor count (dose: 400.0 mg/kg/injection, vehicle: Klucel (hydroxypropylcellulose) (HPC)): 0 of 10

SMILES: NC(CNC(=O)CBr)C(=O)O (stereo not given)
- T/C (dose: 12.5 mg/kg/injection, vehicle: water): 135 % of control
- T/C (dose: 25.0 mg/kg/injection, vehicle: water): 134, 138 [9 of 10 alive], 147 % of control
- T/C [4]: 137 % of control
- survivor count [4]: 8 of 10
- survivor count (dose: 100.0 mg/kg/injection, vehicle: water): 3 of 10 and 4 of 10

SMILES: Cc1ccc(NCCN(C)C)c2c(=O)c3cc(O)ccc3sc12
- survivor count [2]: 0 of 10
- survivor count [3]: 0 of 10

SMILES: COc1ccc(Cl)[n+]([O-])n1
- survivor count [2]: 3 of 10

SMILES: O=S(=O)(O)C1=CC(=N\Cl)/C=CC/1=N/Cl
- survivor count (dose: 200.0 mg/kg/injection, vehicle: saline + Tween-80 + alcohol): 2 of 9
- survivor count (dose: 400.0 mg/kg/injection, vehicle: saline + Tween-80 + alcohol): 0 of 10

SMILES: CN1[C@@H](CC(=O)c2ccccc2)CCC[C@H]1CC(=O)c1ccccc1
- survivor count (dose: 200.0 mg/kg/injection, vehicle: saline): 6 of 10

SMILES: COc1cc2cc3c(c(O)c2c(O)c1/C=C/C(C)C)C(=O)CC(C)(OC(C)=O)C3 (stereo not given)
- T/C (dose: 5.0 mg/kg/injection, vehicle: Klucel (hydroxypropylcellulose) (HPC)): 133 and 148 % of control
- survivor count [1]: 10 of 10

SMILES: O=C(NC(Cc1ccccc1)C(=O)O)c1ccccc1 (stereo not given)
- T/C [5]: 137 % of control
- survivor count [5]: 10 of 10
- survivor count (dose: 400.0 mg/kg/injection, vehicle: saline with Tween-80): 10 of 10

SMILES: Cc1ccc(C)c2c1CCC2C (stereo not given)
- survivor count [5]: 10 of 10
